# Assay results reported in patent US20200030278A1, “PHARMACEUTICAL COMPOSITIONS OF METAP-2 INHIBITORS” (Zafgen, Inc., priority 2017, published 2020).
# The name of at least one read-out is uncertain.
# Test: Pharmacokinetic study in dogs, single s.c. injection (Example 3)
# Conditions: single s.c. injection 0.6 mg/kg
smiles,measurement,value
"CO[C@@H]1[C@H](OC(=O)/C=C/c2ccc(OCCN(C)C)cc2)CC[C@]2(CO2)[C@H]1[C@@]1(C)O[C@@H]1CC=C(C)C [beloranib, reference compound]",time of Cmax after administration,≥ 4 h
